Laboratory results from patent publication US7897142B2 (GE Healthcare AS, priority 2004, dated 2011).
Some peptides are written in HELM: one residue between dots, names in brackets for other building blocks, links after the first $.

Experiment: peptide synthesis
Conditions: conjugation step

Substance	conjugation yield
PEPTIDE1{[CH2CO].K.C.R.G.D.C.F.C.[PEG].[am]}|CHEM1{[Cy5bisSO3]}$PEPTIDE1,PEPTIDE1,1:R3-9:R3|PEPTIDE1,PEPTIDE1,3:R3-7:R3|PEPTIDE1,CHEM1,2:R3-1:R2$$$V2.0	37%
Cys2-6; c[CH2CO-Lys(Cy7 mono-SO3)-Cys-Arg-Gly-Asp-Cys-Phe-Cys]-(PEG)n-NH2(n=1)	38%
Cys2-6; c[CH2CO-Lys(Cy7 bis-SO3)-Cys-Arg-Gly-Asp-Cys-Phe-Cys]-(PEG)n-NH2 (n=1)	36%
PEPTIDE1{[CH2CO].K.C.R.G.D.C.F.C.[PEG].[am]}|CHEM1{[Cy5monoSO3]}$PEPTIDE1,PEPTIDE1,1:R3-9:R3|PEPTIDE1,PEPTIDE1,3:R3-7:R3|PEPTIDE1,CHEM1,2:R3-1:R2$$$V2.0	34%
